Residue numbers refer to the chain shown, from its start. Results are given in words; binding and its absence hold for the method and conditions named. In cells and extracts the contact can be indirect. Some binding calls cover weakened binding; strength is not graded here. Tags and fused reporters may be left off the sequences shown.
Experiments:
Assay in all cases: pull-down; GST fusion proteins bound to beads incubated with activated platelets for 1 h at room temperature; after lysis beads washed, SDS-PAGE and western blotting; only the target purified
[1] = biological target: T1, GST-Dab2 N-PTB^4M (Lys25Ala, Lys49Ala, Lys51Ala, Lys53Ala) (UniProt P98082)
T1 sequence: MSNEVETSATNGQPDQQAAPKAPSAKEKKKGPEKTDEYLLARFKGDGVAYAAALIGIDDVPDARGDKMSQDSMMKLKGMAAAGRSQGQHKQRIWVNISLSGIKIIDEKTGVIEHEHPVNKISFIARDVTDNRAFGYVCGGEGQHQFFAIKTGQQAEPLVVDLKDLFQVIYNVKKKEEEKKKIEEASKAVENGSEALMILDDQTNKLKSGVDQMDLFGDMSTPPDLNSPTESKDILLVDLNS

Protein sequences, listed by entry. Tags and fused reporters are not part of them. Lines headed by an entry give the natural chain unless they say otherwise; changes in a name come on top.
UniProt P08514: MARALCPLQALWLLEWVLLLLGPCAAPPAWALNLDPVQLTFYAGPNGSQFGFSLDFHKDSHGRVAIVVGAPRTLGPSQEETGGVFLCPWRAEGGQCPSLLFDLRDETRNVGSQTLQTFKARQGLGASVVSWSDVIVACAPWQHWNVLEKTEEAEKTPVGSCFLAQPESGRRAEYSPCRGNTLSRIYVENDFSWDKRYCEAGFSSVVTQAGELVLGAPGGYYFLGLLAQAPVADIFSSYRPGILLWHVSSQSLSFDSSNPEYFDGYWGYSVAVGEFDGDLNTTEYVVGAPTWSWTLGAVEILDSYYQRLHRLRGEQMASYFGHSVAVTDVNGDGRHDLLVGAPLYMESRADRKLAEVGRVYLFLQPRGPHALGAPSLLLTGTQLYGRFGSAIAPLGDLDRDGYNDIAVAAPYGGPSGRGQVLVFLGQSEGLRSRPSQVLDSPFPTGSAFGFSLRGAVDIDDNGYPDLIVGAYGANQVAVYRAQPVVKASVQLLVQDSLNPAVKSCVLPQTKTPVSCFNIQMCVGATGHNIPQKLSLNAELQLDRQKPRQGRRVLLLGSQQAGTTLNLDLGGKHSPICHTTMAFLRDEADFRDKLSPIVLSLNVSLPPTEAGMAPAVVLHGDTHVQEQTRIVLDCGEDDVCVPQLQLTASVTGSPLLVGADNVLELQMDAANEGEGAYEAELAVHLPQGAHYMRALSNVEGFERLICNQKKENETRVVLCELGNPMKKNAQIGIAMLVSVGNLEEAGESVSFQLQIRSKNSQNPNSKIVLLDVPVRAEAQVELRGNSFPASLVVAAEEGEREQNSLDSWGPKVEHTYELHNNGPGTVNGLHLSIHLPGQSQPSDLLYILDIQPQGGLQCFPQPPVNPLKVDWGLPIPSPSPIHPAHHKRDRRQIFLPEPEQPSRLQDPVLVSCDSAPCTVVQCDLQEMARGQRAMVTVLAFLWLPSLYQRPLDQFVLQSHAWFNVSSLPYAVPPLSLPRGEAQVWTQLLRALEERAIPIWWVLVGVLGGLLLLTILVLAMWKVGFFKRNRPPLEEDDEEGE

[2] = biological target: T2, GST-Dab2 N-PTB^5M (K25A/K49A/K51A/K53A/D66E) (UniProt P98082)
T2 sequence: T1 sequence with D66E

[3] = biological target: T3, GST-Dab2 N-PTB^D66E (Asp66Glu) (UniProt P98082)
T3 sequence: T1 sequence with A25K, A49K, A51K, A53K, D66E

[4] = biological target: T4, GST-Dab2 N-PTB (N-terminal region of Disabled-2 including its PTB domain, residues 1-241) (UniProt P98082)
T4 sequence: T1 sequence with A25K, A49K, A51K, A53K

- binding [1]: binds
- binding [2]: no binding
- binding [3]: no binding
- binding [4]: binds
Substance: endogenous αIIbβ3 integrin receptor of activated platelets (from UniProt P08514 32-1039; P05106 27-788)

— paper PMC2778132
